Some of these results come from one statement about several compounds together.
Tested on: CYP3A4
Experiment: CYP3A4 induction in primary human hepatocytes (mRNA level and enzyme activity)
Type: in vitro ADME
Details: compound at 1 μM, 72 hours of treatment

## Cc1cc([C@@H](C)Oc2ccc(Cl)nc2S(N)(=O)=O)c2oc(C3CC3CO)c(C)c(=O)c2c1 (single isomer, unassigned) [Example 125C]
  CYP3A4 mRNA fold induction level: less than 3.0 ×

## Cc1cc([C@@H](C)Oc2ccc(Cl)nc2-c2noc(=O)[nH]2)c2oc(-c3ccc4nn(C)cc4n3)c(C)c(=O)c2c1 [Example 1C, 3-[6-Chloro-3-[(1R)-1-[3,6-dimethyl-2-(2-methylpyrazolo[4,3-b]pyridin-5-yl)-4-oxo-chromen-8-yl]ethoxy]-2-pyridyl]-4H-1,2,4-oxadiazol-5-one]
  CYP3A4 mRNA fold induction level: less than 3.0 ×

## Cc1cc([C@@H](C)Oc2ccc(Cl)nc2C(N)=O)c2oc(-c3ccc4cncn4c3)c(C)c(=O)c2c1 [Example 43C, 6-Chloro-3-[(1R)-1-(2-imidazo[1,5-a]pyridin-6-yl-3,6-dimethyl-4-oxo-chromen-8-yl)ethoxy]pyridine-2-carboxamide]
  CYP3A4 mRNA fold induction level: less than 3.0 ×

## Cc1cc([C@@H](C)Oc2ccc(Cl)nc2S(N)(=O)=O)c2oc(-c3cncnc3)c(C)c(=O)c2c1 [Example 38A, 6-Chloro-3-[(1R)-1-(3,6-dimethyl-4-oxo-2-pyrimidin-5-yl-chromen-8-yl)ethoxy]pyridine-2-sulfonamide]
  CYP3A4 mRNA fold induction level: less than 3.0 ×

## CONC(=O)c1ncccc1O[C@H](C)c1cc(C)cc2c(=O)c(C)c(-c3ccc4nn(C)cc4c3)oc12 [Example 23A, 3-[(1R)-1-[3,6-Dimethyl-2-(2-methylindazol-5-yl)-4-oxo-chromen-8-yl]ethoxy]-N-methoxy-pyridine-2-carboxamide]
  CYP3A4 mRNA fold induction level: less than 3.0 ×

## Cc1cc([C@@H](C)Oc2ccc(Cl)nc2S(N)(=O)=O)c2oc(-c3cnc4ccoc4c3)c(C)c(=O)c2c1 [Example 22C, 6-Chloro-3-[(1R)-1-(2-furo[3,2-b]pyridin-6-yl-3,6-dimethyl-4-oxo-chromen-8-yl)ethoxy]pyridine-2-sulfonamide]
  CYP3A4 mRNA fold induction level: less than 3.0 ×

## Cc1cc([C@@H](C)Oc2ccc(Cl)nc2S(N)(=O)=O)c2oc(-c3cn[nH]c3)c(C)c(=O)c2c1 [Example 115C, 6-Chloro-3-[(1R)-1-[3,6-dimethyl-4-oxo-2-(1H-pyrazol-4-yl)chromen-8-yl]ethoxy]pyridine-2-sulfonamide]
  CYP3A4 mRNA fold induction level: less than 3.0 ×

## CONS(=O)(=O)c1nc(Cl)ccc1O[C@H](C)c1cc(C)cc2c(=O)c(C)c(-c3ccccc3)oc12 [Example 32A, 6-Chloro-3-[(1R)-1-(3,6-dimethyl-4-oxo-2-phenyl-chromen-8-yl)ethoxy]-N-methoxy-pyridine-2-sulfonamide]
  CYP3A4 mRNA fold induction level: less than 3.0 ×

## Cc1cc([C@@H](C)Oc2ccc(Cl)nc2S(N)(=O)=O)c2oc(-c3cnn(CC4(O)CC4)c3)c(C)c(=O)c2c1 [Example 128C, 6-Chloro-3-[(1R)-1-[2-[1-[(1-hydroxycyclopropyl)methyl]pyrazol-4-yl]-3,6-dimethyl-4-oxo-chromen-8-yl]ethoxy]pyridine-2-sulfonamide]
  CYP3A4 mRNA fold induction level: less than 3.0 ×

## Cc1cc([C@@H](C)Oc2ccc(Cl)nc2S(=O)(=O)NC2COC2)c2oc(-c3ccccc3)c(C)c(=O)c2c1 [Example 44A, 6-Chloro-3-[(1R)-1-(3,6-dimethyl-4-oxo-2-phenyl-chromen-8-yl)ethoxy]-N-(oxetan-3-yl)pyridine-2-sulfonamide]
  CYP3A4 mRNA fold induction level: less than 3.0 ×

## Cc1cc(C(C)Oc2ccc(Cl)nc2C)c2oc(-c3cccnc3)c(C)c(=O)c2c1 (single isomer, unassigned; isomer 2) [Example 10, 8-[1-[(6-Chloro-2-methyl-3-pyridyl)oxy]ethyl]-3,6-dimethyl-2-(3-pyridyl)chromen-4-one, Isomer 2]
  CYP3A4 mRNA fold induction level: less than 3.0 ×

## CONC(=O)c1nc(Cl)ccc1O[C@H](C)c1cc(C)cc2c(=O)c(C)c(-c3ccc4nn(C)cc4c3)oc12 [Example 26A, 6-Chloro-3-[(1R)-1-[3,6-dimethyl-2-(2-methylindazol-5-yl)-4-oxo-chromen-8-yl]ethoxy]-N-methoxy-pyridine-2-carboxamide]
  CYP3A4 mRNA fold induction level: less than 3.0 ×

## Cc1cc([C@@H](C)Oc2ccc(Cl)nc2S(N)(=O)=O)c2oc(-c3cnn(C)c3C)c(C)c(=O)c2c1 [Example 18C, 6-Chloro-3-[(1R)-1-[2-(1,5-dimethylpyrazol-4-yl)-3,6-dimethyl-4-oxo-chromen-8-yl]ethoxy]pyridine-2-sulfonamide]
  CYP3A4 mRNA fold induction level: less than 3.0 ×

## Cc1cc([C@@H](C)Oc2ccc(Cl)nc2C(N)=O)c2oc(-c3cc(F)c4nc(C)cn4c3)c(C)c(=O)c2c1 [Example 38C]
  CYP3A4 mRNA fold induction level: less than 3.0 ×

## Cc1cc([C@@H](C)Oc2ccc(Cl)nc2C)c2oc(-c3ccc(=O)[nH]c3)c(C)c(=O)c2c1 [Example 71C, 5-[8-[(1R)-1-[(6-Chloro-2-methyl-3-pyridyl)oxy]ethyl]-3,6-dimethyl-4-oxo-chromen-2-yl]-1H-pyridin-2-one]
  CYP3A4 mRNA fold induction level: less than 3.0 ×

## CONS(=O)(=O)c1nc(Cl)ccc1O[C@H](C)c1cc(C)cc2c(=O)c(C)c(-c3cnn(CC(C)(C)O)c3)oc12 [Example 121C, 6-Chloro-3-[(1R)-1-[2-[1-(2-hydroxy-2-methyl-propyl)pyrazol-4-yl]-3,6-dimethyl-4-oxo-chromen-8-yl]ethoxy]-N-methoxy-pyridine-2-sulfonamide]
  CYP3A4 mRNA fold induction level: less than 3.0 ×

## Cc1cc([C@@H](C)Oc2ccc(Cl)nc2S(N)(=O)=O)c2oc(-c3cccnc3)c(C)c(=O)c2c1 [Example 42A, 6-Chloro-3-[(1R)-1-[3,6-dimethyl-4-oxo-2-(3-pyridyl)chromen-8-yl]ethoxy]pyridine-2-sulfonamide]
  CYP3A4 mRNA fold induction level: less than 3.0 ×

## Cc1cc([C@@H](C)Oc2ccc(Cl)nc2C(N)=O)c2oc(-c3ccc4sncc4c3)c(C)c(=O)c2c1 [Example 11B, 3-[(1R)-1-[2-(1,2-Benzothiazol-5-yl)-3,6-dimethyl-4-oxo-chromen-8-yl]ethoxy]-6-chloro-pyridine-2-carboxamide]
  CYP3A4 mRNA fold induction level: less than 3.0 ×

## Cc1cc([C@@H](C)Oc2cccnc2-c2ccccc2F)c2oc(-c3ccc(=O)[nH]c3)c(C)c(=O)c2c1 [Example 30A]
  CYP3A4 mRNA fold induction level: less than 3.0 ×

## Cc1cc([C@@H](C)Oc2ccc(Cl)nc2-c2noc(=O)[nH]2)c2oc(-c3cnn4c3COCC4)c(C)c(=O)c2c1 [Example 41A, 3-[6-Chloro-3-[(1R)-1-[2-(6,7-dihydro-4H-pyrazolo[5,1-c][1,4]oxazin-3-yl)-3,6-dimethyl-4-oxo-chromen-8-yl]ethoxy]-2-pyridyl]-4H-1,2,4-oxadiazol-5-one]
  CYP3A4 mRNA fold induction level: less than 3.0 ×

## Cc1cc([C@@H](C)Oc2ccc(Cl)nc2C(N)=O)c2oc(-c3ccc4nn(C5COC5)cc4c3)c(C)c(=O)c2c1 [Example 77C, 6-Chloro-3-[(1R)-1-[3,6-dimethyl-2-[2-(oxetan-3-yl)indazol-5-yl]-4-oxo-chromen-8-yl]ethoxy]pyridine-2-carboxamide]
  CYP3A4 mRNA fold induction level: less than 3.0 ×

## Cc1cc2c(=O)c(C)c(-c3cccnc3)oc2c(C(C)Oc2ccc(Cl)nc2C(N)=O)c1Cl (single isomer, unassigned) [Example 21B, 6-Chloro-3-[1-[7-chloro-3,6-dimethyl-4-oxo-2-(3-pyridyl)chromen-8-yl]ethoxy]pyridine-2-carboxamide]
  CYP3A4 mRNA fold induction level: less than 3.0 ×

## Cc1cc([C@@H](C)Oc2ccc(Cl)nc2C(N)=O)c2oc(-c3ccc4c(c3)CCC(=O)N4C)c(C)c(=O)c2c1 [Example 114A, 6-Chloro-3-[(1R)-1-[3,6-dimethyl-2-(1-methyl-2-oxo-3,4-dihydroquinolin-6-yl)-4-oxo-chromen-8-yl]ethoxy]pyridine-2-carboxamide]
  CYP3A4 mRNA fold induction level: less than 3.0 ×

## Cc1cc([C@@H](C)Oc2ccc(Cl)nc2C(N)=O)c2oc(-c3cnn4ncccc34)c(C)c(=O)c2c1 [Example 39C, 6-Chloro-3-[(1R)-1-(3,6-dimethyl-4-oxo-2-pyrazolo[1,5-b]pyridazin-3-yl-chromen-8-yl)ethoxy]pyridine-2-carboxamide]
  CYP3A4 mRNA fold induction level: less than 3.0 ×

From patent US20240182460A1, “ALLOSTERIC CHROMENONE INHIBITORS OF PHOSPHOINOSITIDE 3-KINASE (PI3K) FOR THE TREATMENT OF DISEASE” (PETRA PHARMA CORPORATION, priority 2022, published 2024)
